Converted amounts (≈) assume the structure as drawn.
Experiments:
[1] = system: Streptococcus pneumoniae (PSSP); assay: microbe, parasite or virus in culture
Pseudomonas aeruginosa = assay: microbe, parasite or virus in culture; assay type: cell-based
[2] = system: Enterococcus faecium (VRE); assay: organism not typed
[3] = system: Streptococcus pneumoniae (PRSP); assay: microbe, parasite or virus in culture
Streptococcus pyogenes = assay: microbe, parasite or virus in culture
Escherichia coli = assay: microbe, parasite or virus in culture; assay type: cell-based
[4] = system: Enterococcus faecalis (VRE); assay: organism not typed
Escherichia coli ΔacrAB = assay: microbe, parasite or virus in culture; assay type: cell-based
[5] = system: Staphylococcus aureus (MSSA); assay: microbe, parasite or virus in culture
[6] = system: Bacillus anthracis Sterne; assay: microbe, parasite or virus in culture
Streptococcus agalactiae = assay: microbe, parasite or virus in culture
Klebsiella pneumoniae = assay: microbe, parasite or virus in culture; assay type: cell-based
Moraxella catarrhalis = assay: microbe, parasite or virus in culture; assay type: cell-based
[7] = system: Enterococcus faecalis (VSE); assay: microbe, parasite or virus in culture
Streptococcus salivarius = assay: microbe, parasite or virus in culture
Mycobacterium smegmatis = assay: microbe, parasite or virus in culture; assay type: cell-based; conditions: Mycolicibacterium smegmatis, 48 h
[8] = system: Staphylococcus aureus (MRSA); assay: microbe, parasite or virus in culture; assay type: cell-based

CCC[C@@H]1C[C@@H](C(=O)N[C@@H]([C@H]2O[C@H](SC)[C@H](O)[C@@H](O)[C@H]2O)[C@H](C)Cl)N(C)C1 [Clindamycin]
MIC [1]: ≤ 0.06 µg/mL | MIC (Pseudomonas aeruginosa): > 64 µg/mL | MIC [2]: > 64 µg/mL | MIC [3]: > 64 µg/mL | MIC (Streptococcus pyogenes): ≤ 0.06 µg/mL | MIC (Escherichia coli): > 64 µg/mL | MIC [4]: > 64 µg/mL | MIC (Escherichia coli ΔacrAB): 4 µg/mL (≈ 9.41 µM) | MIC [5]: 0.12 µg/mL (≈ 0.282 µM) | MIC [6]: 0.25 µg/mL (≈ 0.588 µM) | MIC (Streptococcus agalactiae): ≤ 0.06 µg/mL | MIC (Klebsiella pneumoniae): > 64 µg/mL | MIC (Moraxella catarrhalis): 1 µg/mL (≈ 2.35 µM) | MIC [7]: 16 µg/mL (≈ 37.6 µM) | MIC (Streptococcus salivarius): ≤ 0.06 µg/mL | MIC (Mycobacterium smegmatis): 16 µg/mL (≈ 37.6 µM) | MIC [8]: ≤ 0.06 µg/mL

— patent US11866460B2 (priority 2015, dated 2024)
